PubChem BioAssay AID1259331 | Drosophila RNAi Screening Center | 2017

Aim: 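Fly transmembrane-protein genes that affect zinc toxicity in cultured cells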 (primary screen)
System: Drosophila S2R+ cells
Reagent: long dsRNA against Drosophila genes
Timing: 5 days (4 days knock-down, then 1 day zinc)
Challenge: zinc chloride at 15 mM final level for 1 day
Measured: 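Luminescent ATP assay standing in for viability; Z score is the mean over three replicate plates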
Scale: mean Z score: higher = more ATP than other wells, better survival under zinc; ATP luminescence: higher = more ATP, more viable cells
Hit rule: 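Hit when the absolute Z score is greater than 1.5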
Calls: active = hit, ATP up or down; inactive = not a hit
The whole screen tested about 3,100 reagents; shown is an unselected part. Over the whole deposit, 126 (4.1%) were called active. 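Calls are per reagent; zinc was so toxic that few knock-downs lowered ATP further, so most hits raise ATP.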 Raw values are not corrected between plates. Reagents against one gene are numbered here. Reagent sequences are not shown. Not stated in the record: the amount of reagent.

The first 3 entries, ahead of the listing:
Ten-a #1
- mean Z score: -0.192
- ATP luminescence, replicate 1: 37039
- ATP luminescence, replicate 2: 44685
- Outcome: inactive

Ten-a #2
- mean Z score: 0.134
- ATP luminescence, replicate 1: 62621
- ATP luminescence, replicate 2: 74043
- Outcome: inactive

Nup214 #1
- mean Z score: -0.716
- ATP luminescence, replicate 1: 26462
- ATP luminescence, replicate 2: 26959
- Outcome: inactive

The listing, repeating the preview:
Ten-a #1
- mean Z score: -0.192
- ATP luminescence, replicate 1: 37039
- ATP luminescence, replicate 2: 44685
- Outcome: inactive

Ten-a #2
- mean Z score: 0.134
- ATP luminescence, replicate 1: 62621
- ATP luminescence, replicate 2: 74043
- Outcome: inactive

Nup214 #1
- mean Z score: -0.716
- ATP luminescence, replicate 1: 26462
- ATP luminescence, replicate 2: 26959
- Outcome: inactive

Nup214 #2
- mean Z score: 3.59
- ATP luminescence, replicate 1: 1.09e5
- ATP luminescence, replicate 2: 1.15e5
- Outcome: active

CG1494
- mean Z score: -0.02
- ATP luminescence, replicate 1: 33662
- ATP luminescence, replicate 2: 51268
- Outcome: inactive

Or85f #1
- mean Z score: -0.0866
- ATP luminescence, replicate 1: 37673
- ATP luminescence, replicate 2: 59253
- Outcome: inactive

Or85f #2
- mean Z score: 0.0712
- ATP luminescence, replicate 1: 55968
- ATP luminescence, replicate 2: 61158
- Outcome: inactive

Or67a
- mean Z score: -0.0154
- ATP luminescence, replicate 1: 89052
- ATP luminescence, replicate 2: 56071
- Outcome: inactive

ppk28 #1
- mean Z score: -0.143
- ATP luminescence, replicate 1: 47514
- ATP luminescence, replicate 2: 33970
- Outcome: inactive

ppk28 #2
- mean Z score: -0.167
- ATP luminescence, replicate 1: 57940
- ATP luminescence, replicate 2: 56276
- Outcome: inactive

CG11353 #1
- mean Z score: -0.411
- ATP luminescence, replicate 1: 26239
- ATP luminescence, replicate 2: 29702
- Outcome: inactive

CG11353 #2
- mean Z score: 0.808
- ATP luminescence, replicate 1: 73272
- ATP luminescence, replicate 2: 70184
- Outcome: inactive

CG14234 #1
- mean Z score: -0.6
- ATP luminescence, replicate 1: 80115
- ATP luminescence, replicate 2: 57717
- Outcome: inactive

CG14234 #2
- mean Z score: -0.187
- ATP luminescence, replicate 1: 40742
- ATP luminescence, replicate 2: 40759
- Outcome: inactive

Scamp #1
- mean Z score: 0.399
- ATP luminescence, replicate 1: 71831
- ATP luminescence, replicate 2: 73529
- Outcome: inactive

Scamp #2
- mean Z score: -1.38
- ATP luminescence, replicate 1: 42234
- ATP luminescence, replicate 2: 38102
- Outcome: inactive

CG14195 #1
- mean Z score: -0.0172
- ATP luminescence, replicate 1: 45920
- ATP luminescence, replicate 2: 44240
- Outcome: inactive

CG14195 #2
- mean Z score: 1.3
- ATP luminescence, replicate 1: 78348
- ATP luminescence, replicate 2: 77028
- Outcome: inactive

mthl4
- mean Z score: -0.514
- ATP luminescence, replicate 1: 63289
- ATP luminescence, replicate 2: 64830
- Outcome: inactive

Pvr #1
- mean Z score: -0.472
- ATP luminescence, replicate 1: 49224
- ATP luminescence, replicate 2: 49898
- Outcome: inactive

Pvr #2
- mean Z score: -1.37
- ATP luminescence, replicate 1: 29907
- ATP luminescence, replicate 2: 31502
- Outcome: inactive

Pvr #3
- mean Z score: -1.17
- ATP luminescence, replicate 1: 34176
- ATP luminescence, replicate 2: 32856
- Outcome: inactive

ppk24 #1
- mean Z score: 0.378
- ATP luminescence, replicate 1: 69224
- ATP luminescence, replicate 2: 75467
- Outcome: inactive

ppk24 #2
- mean Z score: 0.0401
- ATP luminescence, replicate 1: 57295
- ATP luminescence, replicate 2: 56242
- Outcome: inactive

Gr64f #1
- mean Z score: -0.311
- ATP luminescence, replicate 1: 69258
- ATP luminescence, replicate 2: 56431
- Outcome: inactive

Gr64f #2
- mean Z score: -0.139
- ATP luminescence, replicate 1: 54270
- ATP luminescence, replicate 2: 54973
- Outcome: inactive

PGRP-LF
- mean Z score: 0.665
- ATP luminescence, replicate 1: 71625
- ATP luminescence, replicate 2: 71659
- Outcome: inactive

MsR2 #1
- mean Z score: -0.0442
- ATP luminescence, replicate 1: 70079
- ATP luminescence, replicate 2: 71539
- Outcome: inactive

MsR2 #2
- mean Z score: 0.507
- ATP luminescence, replicate 1: 61129
- ATP luminescence, replicate 2: 63684
- Outcome: inactive

MsR2 #3
- mean Z score: -0.172
- ATP luminescence, replicate 1: 60392
- ATP luminescence, replicate 2: 52315
- Outcome: inactive
